One substance from patent publication US20040139485A1 can be followed below.

Amino acid sequences for entries named in this document (tags omitted). Residues count along the entry.
UniProt P03070, residues 84-708: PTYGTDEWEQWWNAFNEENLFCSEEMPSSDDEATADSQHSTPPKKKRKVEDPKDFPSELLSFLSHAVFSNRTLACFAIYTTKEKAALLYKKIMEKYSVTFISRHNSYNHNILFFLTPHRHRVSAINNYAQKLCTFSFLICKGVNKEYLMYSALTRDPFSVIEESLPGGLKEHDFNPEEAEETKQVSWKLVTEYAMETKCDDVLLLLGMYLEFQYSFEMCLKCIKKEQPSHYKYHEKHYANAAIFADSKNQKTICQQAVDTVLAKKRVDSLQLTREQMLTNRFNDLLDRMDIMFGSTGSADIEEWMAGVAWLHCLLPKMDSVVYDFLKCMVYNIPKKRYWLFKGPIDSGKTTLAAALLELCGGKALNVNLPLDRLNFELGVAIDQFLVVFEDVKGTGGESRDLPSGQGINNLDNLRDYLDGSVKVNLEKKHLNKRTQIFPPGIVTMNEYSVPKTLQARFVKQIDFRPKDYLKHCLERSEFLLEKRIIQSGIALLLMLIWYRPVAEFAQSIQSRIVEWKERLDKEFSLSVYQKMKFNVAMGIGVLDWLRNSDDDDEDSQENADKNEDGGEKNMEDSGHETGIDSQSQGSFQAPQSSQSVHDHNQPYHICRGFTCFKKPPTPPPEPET

In this assay the target is T1, fragment of Rb (1.9 kb BsmHI-SalI fragment of Rb from pASRB2) cloned into pGBT9 (UniProt P06400).
T1 sequence (looked up): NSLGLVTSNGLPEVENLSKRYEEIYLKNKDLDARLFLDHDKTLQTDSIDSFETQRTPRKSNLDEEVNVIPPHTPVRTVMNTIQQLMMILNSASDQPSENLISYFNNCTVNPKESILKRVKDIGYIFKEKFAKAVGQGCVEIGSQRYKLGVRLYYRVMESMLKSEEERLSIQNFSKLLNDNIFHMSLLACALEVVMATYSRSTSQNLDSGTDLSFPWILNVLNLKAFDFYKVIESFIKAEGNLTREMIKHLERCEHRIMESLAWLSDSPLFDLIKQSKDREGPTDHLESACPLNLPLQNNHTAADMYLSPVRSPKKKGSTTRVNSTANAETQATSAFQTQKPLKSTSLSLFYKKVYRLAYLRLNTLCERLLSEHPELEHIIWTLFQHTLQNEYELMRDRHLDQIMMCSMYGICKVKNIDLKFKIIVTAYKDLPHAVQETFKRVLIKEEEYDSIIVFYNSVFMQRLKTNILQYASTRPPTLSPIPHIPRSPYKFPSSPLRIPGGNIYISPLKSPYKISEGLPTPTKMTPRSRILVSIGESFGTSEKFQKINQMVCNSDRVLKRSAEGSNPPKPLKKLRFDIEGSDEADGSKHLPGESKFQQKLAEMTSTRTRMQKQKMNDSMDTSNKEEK
The experiment in a line: yeast two-hybrid (GAL4), positive control.

Results are given in words; binding and its absence hold for the method and conditions named. Some results given as binding are weak or reduced against the parent protein; the word gives no strength.

Turning to “SV40 large T antigen (pTD1) (from UniProt P03070 84-708)”, the binding entry is recorded as “binds”.
